Laboratory results as given in the supplement of paper PMC12067093, “Discovery and optimisation of a covalent ligand for TRIM25 and its application to targeted protein ubiquitination” (Chemical Science, 2025).
The list shows a part of the results.

Amino acid sequences for entries named in this document (tags omitted). A change or cut given only in a name is not applied to a line headed by its entry.
UniProt Q92643: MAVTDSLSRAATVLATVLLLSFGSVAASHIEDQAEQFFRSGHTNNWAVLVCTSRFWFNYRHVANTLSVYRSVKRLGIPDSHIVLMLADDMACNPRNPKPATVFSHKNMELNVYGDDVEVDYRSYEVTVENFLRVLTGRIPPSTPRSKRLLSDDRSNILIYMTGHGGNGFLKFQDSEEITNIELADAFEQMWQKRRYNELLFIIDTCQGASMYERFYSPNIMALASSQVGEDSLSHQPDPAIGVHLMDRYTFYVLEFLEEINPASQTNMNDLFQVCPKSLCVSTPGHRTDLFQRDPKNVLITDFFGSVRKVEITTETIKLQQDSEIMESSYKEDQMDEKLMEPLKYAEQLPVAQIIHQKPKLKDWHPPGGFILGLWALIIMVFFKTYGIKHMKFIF

Legend:
[1] = target: PIGK_Q92643_92_LGIPDSHIVLMLADDMACNPR (UniProt Q92643); experiment: probe-labelled cysteine peptide fold change vs DMSO (competition) (log2 fold change); higher = less target engagement (more negative = stronger competition); conditions: THP-1, incubation time: 4 h
[2] = target: PIGK_Q92643_92_RLGIPDSHIVLMLADDMACNPR (UniProt Q92643); experiment: as above; conditions: THP-1, incubation time: 4 h
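Also: competitive chemoproteomic profiling in live THP-1 cells with an iodoacetamide desthiobiotin (IA-DTB) probe, comparing probe-labelled peptide intensities in compound-treated cells against DMSO-treated controls.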

Q: What does the source list for `CC1Cc2ccccc2N1C(=O)C1CCCN(C(=O)CCl)C1` (mixture of isomers) [TRIM25 ligand 11 (diastereomer mixture)]?
A: probe-labelled cysteine peptide fold change ([1]; 10 µM): 0.0738; probe-labelled cysteine peptide fold change ([1]; 50 µM): -0.172; probe-labelled cysteine peptide fold change ([2]; 10 µM): 0.0462; probe-labelled cysteine peptide fold change ([2]; 50 µM): 0.012
